The target in this assay is T1, SPINK1-ALFA (human) (UniProt P00995).
T1 sequence: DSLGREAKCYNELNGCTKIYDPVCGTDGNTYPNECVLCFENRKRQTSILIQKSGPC
The assay is described as follows: co-IP.

Chains of the proteins cited; added tags and fusions are not shown. Residues count along the entry.
UniProt P39060, residues 24-1754: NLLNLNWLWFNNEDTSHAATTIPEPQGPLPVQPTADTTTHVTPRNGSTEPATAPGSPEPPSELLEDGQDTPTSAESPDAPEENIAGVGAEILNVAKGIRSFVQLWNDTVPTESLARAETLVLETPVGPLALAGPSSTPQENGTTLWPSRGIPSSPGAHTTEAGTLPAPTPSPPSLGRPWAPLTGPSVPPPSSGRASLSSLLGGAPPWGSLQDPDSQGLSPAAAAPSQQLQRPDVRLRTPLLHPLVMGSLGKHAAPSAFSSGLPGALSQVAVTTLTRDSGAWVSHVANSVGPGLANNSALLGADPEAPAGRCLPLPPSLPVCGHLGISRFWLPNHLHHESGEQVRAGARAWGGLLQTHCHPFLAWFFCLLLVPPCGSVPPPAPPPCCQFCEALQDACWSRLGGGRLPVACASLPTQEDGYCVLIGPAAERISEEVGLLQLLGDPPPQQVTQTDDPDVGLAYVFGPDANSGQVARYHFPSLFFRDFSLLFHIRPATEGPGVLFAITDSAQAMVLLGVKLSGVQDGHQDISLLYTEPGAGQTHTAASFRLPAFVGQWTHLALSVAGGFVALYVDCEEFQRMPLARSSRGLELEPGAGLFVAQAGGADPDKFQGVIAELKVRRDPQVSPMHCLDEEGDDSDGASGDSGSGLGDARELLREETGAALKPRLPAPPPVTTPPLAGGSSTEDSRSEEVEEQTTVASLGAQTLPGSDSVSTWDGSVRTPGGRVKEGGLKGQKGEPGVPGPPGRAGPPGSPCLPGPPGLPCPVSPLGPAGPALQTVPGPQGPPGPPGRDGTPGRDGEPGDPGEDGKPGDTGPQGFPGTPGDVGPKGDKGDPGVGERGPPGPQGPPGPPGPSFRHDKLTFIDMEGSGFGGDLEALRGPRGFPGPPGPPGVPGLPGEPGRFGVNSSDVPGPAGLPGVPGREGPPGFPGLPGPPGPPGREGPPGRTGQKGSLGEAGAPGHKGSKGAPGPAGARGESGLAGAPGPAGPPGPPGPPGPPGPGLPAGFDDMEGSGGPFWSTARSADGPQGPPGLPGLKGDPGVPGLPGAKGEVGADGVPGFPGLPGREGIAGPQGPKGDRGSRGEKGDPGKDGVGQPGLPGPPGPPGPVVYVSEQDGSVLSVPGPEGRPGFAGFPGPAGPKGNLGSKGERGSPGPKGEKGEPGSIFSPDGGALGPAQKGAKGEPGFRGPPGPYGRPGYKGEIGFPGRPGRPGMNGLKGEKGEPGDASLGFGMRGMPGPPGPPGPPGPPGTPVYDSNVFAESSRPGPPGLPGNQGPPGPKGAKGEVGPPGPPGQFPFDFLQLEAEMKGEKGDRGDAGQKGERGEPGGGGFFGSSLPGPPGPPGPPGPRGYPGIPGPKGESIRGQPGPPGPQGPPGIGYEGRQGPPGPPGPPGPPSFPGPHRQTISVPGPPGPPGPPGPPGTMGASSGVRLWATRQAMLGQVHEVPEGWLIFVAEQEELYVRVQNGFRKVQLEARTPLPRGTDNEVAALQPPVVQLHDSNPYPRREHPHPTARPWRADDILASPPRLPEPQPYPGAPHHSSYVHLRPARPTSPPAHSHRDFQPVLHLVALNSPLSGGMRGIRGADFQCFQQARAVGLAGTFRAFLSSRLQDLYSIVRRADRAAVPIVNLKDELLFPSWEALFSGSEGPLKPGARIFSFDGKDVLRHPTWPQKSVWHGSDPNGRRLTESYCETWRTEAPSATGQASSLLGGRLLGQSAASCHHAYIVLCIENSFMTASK

No constants are given. Whether binding was seen depends on the method and setting. Binding seen in cells or lysates may run through a third protein. Some results given as binding are weak or reduced against the parent protein; the word gives no strength.

On to COL18A1 (from UniProt P39060 24-1754), for which the binding entry is recorded as “binds”.
